In PMC9597953:
No constants are given. Whether binding was seen depends on the method and setting. Binding seen in cells or lysates may run through a third protein. Some results given as binding are weak or reduced against the parent protein; the word gives no strength. For part of these data: Tags and fused reporters may be left off the sequences shown.

Sequences of proteins named here, by UniProt entry; tags and fusion partners are left off. A change or cut given only in a name is not applied to a line headed by its entry.
UniProt Q12756: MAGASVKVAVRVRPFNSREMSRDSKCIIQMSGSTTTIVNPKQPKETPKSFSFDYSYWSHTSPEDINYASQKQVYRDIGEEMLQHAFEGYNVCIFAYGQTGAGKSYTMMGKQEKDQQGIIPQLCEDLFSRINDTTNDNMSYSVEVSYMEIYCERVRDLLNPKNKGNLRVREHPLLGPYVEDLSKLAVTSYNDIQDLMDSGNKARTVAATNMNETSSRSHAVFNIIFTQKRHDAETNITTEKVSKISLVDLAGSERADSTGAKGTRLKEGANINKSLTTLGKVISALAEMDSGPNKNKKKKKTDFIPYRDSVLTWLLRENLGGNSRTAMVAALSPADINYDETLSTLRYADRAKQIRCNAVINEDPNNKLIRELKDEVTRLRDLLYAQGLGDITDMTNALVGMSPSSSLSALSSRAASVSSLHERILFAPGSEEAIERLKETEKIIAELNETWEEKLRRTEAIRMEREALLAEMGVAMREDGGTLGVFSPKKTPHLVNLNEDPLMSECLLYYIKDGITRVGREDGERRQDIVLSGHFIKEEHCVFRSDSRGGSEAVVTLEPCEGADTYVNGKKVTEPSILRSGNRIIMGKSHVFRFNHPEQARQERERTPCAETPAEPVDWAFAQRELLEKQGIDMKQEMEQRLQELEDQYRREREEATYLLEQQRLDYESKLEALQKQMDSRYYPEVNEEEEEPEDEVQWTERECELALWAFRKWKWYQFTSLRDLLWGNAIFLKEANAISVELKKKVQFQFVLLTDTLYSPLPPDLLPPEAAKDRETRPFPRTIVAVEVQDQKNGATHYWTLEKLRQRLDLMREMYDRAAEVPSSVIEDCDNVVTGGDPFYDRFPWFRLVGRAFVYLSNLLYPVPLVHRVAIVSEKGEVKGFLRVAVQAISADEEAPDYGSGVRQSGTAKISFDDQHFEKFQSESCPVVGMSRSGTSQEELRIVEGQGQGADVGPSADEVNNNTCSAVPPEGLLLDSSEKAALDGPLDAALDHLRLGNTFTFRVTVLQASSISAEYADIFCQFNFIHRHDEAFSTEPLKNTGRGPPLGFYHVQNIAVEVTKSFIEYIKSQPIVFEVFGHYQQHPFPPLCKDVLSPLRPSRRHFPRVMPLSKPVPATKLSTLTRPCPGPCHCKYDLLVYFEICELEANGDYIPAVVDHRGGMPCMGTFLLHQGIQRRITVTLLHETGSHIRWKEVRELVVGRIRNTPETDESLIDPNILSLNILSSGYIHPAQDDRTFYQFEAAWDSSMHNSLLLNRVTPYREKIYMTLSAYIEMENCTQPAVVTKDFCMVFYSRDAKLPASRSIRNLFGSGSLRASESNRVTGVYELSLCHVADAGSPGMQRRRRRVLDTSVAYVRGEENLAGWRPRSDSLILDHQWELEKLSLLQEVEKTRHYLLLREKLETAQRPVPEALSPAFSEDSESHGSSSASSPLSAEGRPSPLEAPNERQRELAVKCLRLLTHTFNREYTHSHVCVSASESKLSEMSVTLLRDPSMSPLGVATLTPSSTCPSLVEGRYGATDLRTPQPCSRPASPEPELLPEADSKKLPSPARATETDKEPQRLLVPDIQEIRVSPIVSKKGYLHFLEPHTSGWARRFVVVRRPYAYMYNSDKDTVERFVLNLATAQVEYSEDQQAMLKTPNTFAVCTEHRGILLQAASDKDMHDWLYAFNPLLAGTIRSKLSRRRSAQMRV
UniProt P63027: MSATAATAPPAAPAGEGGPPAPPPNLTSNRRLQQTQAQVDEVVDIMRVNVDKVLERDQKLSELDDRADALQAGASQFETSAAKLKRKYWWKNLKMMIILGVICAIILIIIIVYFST
UniProt P08247: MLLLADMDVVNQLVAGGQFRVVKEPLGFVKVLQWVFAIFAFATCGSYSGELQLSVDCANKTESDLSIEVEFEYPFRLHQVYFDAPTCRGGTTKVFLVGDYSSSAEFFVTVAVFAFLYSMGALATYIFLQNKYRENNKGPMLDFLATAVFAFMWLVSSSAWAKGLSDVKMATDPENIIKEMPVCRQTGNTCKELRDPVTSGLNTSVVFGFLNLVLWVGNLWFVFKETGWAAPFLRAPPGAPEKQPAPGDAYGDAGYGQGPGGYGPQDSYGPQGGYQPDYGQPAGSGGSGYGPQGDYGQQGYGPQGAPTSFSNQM

What was measured:
[1] = biological target: KIF1A-3xFLAG R370C (human) (UniProt Q12756); test: co-IP; HEK293T cells, KIF1A (WT or variant) with synaptophysin; which partner was precipitated is not stated in the text (methods: anti-FLAG M2 beads, 20 mM Tris-HCl pH 7.5, 150 mM NaCl, 1 mM EGTA, 1% Triton X-100)
[2] = biological target: KIF1A-3xFLAG Y799C (human) (UniProt Q12756); test: as above
[3] = biological target: KIF1A-3xFLAG, wild type (human) (UniProt Q12756); test: as above
FLAG-RAB3A = biological target: T1, FLAG-RAB3A (UniProt P20336); test: co-IP; HEK293T cells cotransfected with FLAG-RAB3A or FLAG-VAMP2 and KIF1A-Venus; lysis in 20 mM Tris-HCl pH 7.5, 150 mM NaCl, 1 mM EGTA, 1% Triton X-100; anti-FLAG M2 beads 4 h at 4 °C; blot with anti-GFP and anti-FLAG
T1 sequence: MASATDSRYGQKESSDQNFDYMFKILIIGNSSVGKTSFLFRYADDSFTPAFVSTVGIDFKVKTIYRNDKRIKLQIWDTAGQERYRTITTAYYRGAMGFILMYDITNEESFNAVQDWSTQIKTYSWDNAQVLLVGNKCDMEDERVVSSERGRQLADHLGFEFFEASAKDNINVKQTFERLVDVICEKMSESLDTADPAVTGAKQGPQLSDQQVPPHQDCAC

FLAG-VAMP2 = FLAG-VAMP2 (UniProt P63027); test: as above

“RFP-synaptophysin (from UniProt P08247 1-313)” was tested, and the binding [1] was “binds”, the binding [2] was “binds” and the binding [3] was “binds”.

In the case of “KIF1A-Venus R370C (from UniProt Q12756-1 1-1690)”, the binding (FLAG-RAB3A) is reported as “binds” and the binding (FLAG-VAMP2) is reported as “binds”.

For “KIF1A-Venus R1356Q (from UniProt Q12756-1 1-1690)”, the binding (FLAG-RAB3A) was “binds” and the binding (FLAG-VAMP2) was “binds”.

“KIF1A-Venus R1100C (from UniProt Q12756-1 1-1690)” was tested, and the binding (FLAG-RAB3A) was “binds” and the binding (FLAG-VAMP2) was “binds”.

“KIF1A-Venus A1643V (from UniProt Q12756-1 1-1690)” was tested, and the binding (FLAG-RAB3A) was “binds” and the binding (FLAG-VAMP2) was “binds”.

“KIF1A-Venus P1587L (from UniProt Q12756-1 1-1690)” was tested, and the binding (FLAG-RAB3A) was “binds” and the binding (FLAG-VAMP2) was “binds”.

In the case of “KIF1A-Venus, wild type (from UniProt Q12756-1 1-1690)”, the binding (FLAG-RAB3A) is reported as “binds” and the binding (FLAG-VAMP2) is reported as “binds”.
